Results are given in words; binding and its absence hold for the method and conditions named. Some results given as binding are weak or reduced against the parent protein; the word gives no strength.
target: T1, G-CSF receptor (free receptor) (UniProt Q99062); test: BIAcore 2000 competition: 2 nM free receptor mixed with mutant ligand, passed over immobilised His-tagged wild-type G-CSF
T1 sequence (looked up): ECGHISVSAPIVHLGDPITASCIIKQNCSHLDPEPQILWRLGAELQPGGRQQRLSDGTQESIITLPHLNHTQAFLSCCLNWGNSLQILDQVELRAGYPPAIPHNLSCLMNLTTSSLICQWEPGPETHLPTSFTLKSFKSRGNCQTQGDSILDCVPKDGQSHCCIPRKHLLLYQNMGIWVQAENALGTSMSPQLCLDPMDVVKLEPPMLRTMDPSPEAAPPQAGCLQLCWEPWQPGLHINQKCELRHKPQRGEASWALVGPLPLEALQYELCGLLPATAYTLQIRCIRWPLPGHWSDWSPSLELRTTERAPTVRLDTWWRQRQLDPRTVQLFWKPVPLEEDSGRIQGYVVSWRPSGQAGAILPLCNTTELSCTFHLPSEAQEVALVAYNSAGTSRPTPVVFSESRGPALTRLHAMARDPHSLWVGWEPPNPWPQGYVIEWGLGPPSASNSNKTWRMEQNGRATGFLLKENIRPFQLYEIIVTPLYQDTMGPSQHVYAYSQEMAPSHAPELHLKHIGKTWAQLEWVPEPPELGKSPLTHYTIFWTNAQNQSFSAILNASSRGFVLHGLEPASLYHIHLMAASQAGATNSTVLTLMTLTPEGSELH

By UniProt entry, the sequences of proteins in these tests, tags left out. Where a name states a change or a piece, a line headed by the entry shows the natural chain unless it says otherwise.
UniProt P09919: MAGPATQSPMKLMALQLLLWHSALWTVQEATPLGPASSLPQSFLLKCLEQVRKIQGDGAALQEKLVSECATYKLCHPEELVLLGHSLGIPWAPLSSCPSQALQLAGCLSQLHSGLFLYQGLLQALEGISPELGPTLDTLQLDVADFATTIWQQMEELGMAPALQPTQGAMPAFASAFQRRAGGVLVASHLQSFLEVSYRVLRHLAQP

binding, binds:
[Ala^19]G-CSF (from UniProt P09919 31-207) (ligand)
[Ala^26]G-CSF (from UniProt P09919 31-207) (ligand)
[Ala^33]G-CSF (from UniProt P09919 31-207) (ligand)
[Ala^38]G-CSF (from UniProt P09919 31-207) (ligand)
[Ala^46]G-CSF (from UniProt P09919 31-207) (ligand)
[Asp^30]G-CSF (from UniProt P09919 31-207) (ligand)
[Glu^26]G-CSF (from UniProt P09919 31-207) (ligand)
[Glu^41]G-CSF (from UniProt P09919 31-207) (ligand)
[Glu^47]G-CSF (from UniProt P09919 31-207) (ligand)
[Glu^50]G-CSF (from UniProt P09919 31-207) (ligand)
[Glu^54]G-CSF (from UniProt P09919 31-207) (ligand)
[Glu^144]G-CSF (from UniProt P09919 31-207) (ligand)
[Leu^26]G-CSF (from UniProt P09919 31-207) (ligand)

Reference: US20020151488A1
